Data on 17 targets can be found in the supplement of paper PMC6411743.

Protein sequences, listed by entry. Tags and fused reporters are not part of them. Lines headed by an entry give the natural chain unless they say otherwise; changes in a name come on top.
UniProt C4AMC7: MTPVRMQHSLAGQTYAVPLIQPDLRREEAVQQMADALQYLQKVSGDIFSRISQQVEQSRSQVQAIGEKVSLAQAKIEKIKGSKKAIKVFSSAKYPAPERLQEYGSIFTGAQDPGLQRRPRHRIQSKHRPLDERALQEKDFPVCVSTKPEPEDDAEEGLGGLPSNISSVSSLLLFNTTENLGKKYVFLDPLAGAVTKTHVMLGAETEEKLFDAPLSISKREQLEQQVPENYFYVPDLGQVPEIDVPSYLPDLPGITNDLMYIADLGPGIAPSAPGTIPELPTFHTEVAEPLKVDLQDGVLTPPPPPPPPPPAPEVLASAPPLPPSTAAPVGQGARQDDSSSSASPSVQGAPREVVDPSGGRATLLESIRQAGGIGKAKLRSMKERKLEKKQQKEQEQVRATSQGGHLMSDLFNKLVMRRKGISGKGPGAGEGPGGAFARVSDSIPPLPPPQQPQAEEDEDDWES
UniProt O75955: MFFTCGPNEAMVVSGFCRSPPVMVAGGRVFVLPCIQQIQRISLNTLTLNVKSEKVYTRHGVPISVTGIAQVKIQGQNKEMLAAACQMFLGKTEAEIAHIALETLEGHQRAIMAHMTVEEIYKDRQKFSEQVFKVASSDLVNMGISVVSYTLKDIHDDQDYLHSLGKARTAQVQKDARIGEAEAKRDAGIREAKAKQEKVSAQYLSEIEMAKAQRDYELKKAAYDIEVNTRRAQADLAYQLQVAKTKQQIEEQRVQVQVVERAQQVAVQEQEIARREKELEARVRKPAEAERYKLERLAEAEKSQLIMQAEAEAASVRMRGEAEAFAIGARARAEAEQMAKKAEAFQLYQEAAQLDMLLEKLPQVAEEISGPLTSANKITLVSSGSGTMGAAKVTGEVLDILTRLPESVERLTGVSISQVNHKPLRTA
UniProt A8MW92: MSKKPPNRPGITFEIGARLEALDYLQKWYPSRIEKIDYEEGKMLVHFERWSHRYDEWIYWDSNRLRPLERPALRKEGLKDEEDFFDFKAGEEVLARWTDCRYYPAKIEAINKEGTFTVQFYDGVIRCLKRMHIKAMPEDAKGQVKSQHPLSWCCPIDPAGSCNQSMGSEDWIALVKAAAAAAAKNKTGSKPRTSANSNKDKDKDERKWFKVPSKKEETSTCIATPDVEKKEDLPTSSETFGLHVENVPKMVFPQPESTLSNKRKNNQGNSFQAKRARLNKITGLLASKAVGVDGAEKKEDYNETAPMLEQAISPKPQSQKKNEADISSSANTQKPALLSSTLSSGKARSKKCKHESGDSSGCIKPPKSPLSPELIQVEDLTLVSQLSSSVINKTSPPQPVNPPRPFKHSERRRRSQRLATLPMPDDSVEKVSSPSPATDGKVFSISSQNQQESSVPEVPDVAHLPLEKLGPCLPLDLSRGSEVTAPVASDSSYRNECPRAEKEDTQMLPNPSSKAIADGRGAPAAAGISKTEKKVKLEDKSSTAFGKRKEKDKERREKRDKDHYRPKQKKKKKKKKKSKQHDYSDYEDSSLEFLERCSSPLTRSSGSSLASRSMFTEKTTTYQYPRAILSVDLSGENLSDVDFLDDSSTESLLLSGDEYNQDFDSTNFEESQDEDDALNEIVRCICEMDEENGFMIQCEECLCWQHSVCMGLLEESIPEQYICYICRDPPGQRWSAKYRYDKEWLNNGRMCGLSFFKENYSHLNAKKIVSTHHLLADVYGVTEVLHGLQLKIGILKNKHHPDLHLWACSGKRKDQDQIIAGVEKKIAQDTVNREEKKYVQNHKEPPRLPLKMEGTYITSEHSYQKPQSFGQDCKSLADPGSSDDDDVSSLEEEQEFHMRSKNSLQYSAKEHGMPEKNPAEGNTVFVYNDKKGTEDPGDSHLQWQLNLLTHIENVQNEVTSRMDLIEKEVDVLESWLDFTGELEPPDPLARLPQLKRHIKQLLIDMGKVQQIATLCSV
UniProt Q643R3: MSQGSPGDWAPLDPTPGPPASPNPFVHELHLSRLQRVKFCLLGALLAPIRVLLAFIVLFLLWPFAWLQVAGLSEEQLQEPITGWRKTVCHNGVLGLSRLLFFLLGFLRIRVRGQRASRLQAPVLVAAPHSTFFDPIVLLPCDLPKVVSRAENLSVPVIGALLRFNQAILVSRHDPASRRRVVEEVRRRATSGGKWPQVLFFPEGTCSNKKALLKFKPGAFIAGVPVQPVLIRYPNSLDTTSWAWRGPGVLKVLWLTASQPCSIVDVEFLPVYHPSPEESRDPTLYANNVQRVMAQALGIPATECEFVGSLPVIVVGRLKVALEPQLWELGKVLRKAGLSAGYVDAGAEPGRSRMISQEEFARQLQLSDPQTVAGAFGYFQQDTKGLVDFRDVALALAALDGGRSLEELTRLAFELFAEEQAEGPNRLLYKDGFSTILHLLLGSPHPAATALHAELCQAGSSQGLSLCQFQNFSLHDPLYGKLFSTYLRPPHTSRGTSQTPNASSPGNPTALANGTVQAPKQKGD
UniProt A6NC98: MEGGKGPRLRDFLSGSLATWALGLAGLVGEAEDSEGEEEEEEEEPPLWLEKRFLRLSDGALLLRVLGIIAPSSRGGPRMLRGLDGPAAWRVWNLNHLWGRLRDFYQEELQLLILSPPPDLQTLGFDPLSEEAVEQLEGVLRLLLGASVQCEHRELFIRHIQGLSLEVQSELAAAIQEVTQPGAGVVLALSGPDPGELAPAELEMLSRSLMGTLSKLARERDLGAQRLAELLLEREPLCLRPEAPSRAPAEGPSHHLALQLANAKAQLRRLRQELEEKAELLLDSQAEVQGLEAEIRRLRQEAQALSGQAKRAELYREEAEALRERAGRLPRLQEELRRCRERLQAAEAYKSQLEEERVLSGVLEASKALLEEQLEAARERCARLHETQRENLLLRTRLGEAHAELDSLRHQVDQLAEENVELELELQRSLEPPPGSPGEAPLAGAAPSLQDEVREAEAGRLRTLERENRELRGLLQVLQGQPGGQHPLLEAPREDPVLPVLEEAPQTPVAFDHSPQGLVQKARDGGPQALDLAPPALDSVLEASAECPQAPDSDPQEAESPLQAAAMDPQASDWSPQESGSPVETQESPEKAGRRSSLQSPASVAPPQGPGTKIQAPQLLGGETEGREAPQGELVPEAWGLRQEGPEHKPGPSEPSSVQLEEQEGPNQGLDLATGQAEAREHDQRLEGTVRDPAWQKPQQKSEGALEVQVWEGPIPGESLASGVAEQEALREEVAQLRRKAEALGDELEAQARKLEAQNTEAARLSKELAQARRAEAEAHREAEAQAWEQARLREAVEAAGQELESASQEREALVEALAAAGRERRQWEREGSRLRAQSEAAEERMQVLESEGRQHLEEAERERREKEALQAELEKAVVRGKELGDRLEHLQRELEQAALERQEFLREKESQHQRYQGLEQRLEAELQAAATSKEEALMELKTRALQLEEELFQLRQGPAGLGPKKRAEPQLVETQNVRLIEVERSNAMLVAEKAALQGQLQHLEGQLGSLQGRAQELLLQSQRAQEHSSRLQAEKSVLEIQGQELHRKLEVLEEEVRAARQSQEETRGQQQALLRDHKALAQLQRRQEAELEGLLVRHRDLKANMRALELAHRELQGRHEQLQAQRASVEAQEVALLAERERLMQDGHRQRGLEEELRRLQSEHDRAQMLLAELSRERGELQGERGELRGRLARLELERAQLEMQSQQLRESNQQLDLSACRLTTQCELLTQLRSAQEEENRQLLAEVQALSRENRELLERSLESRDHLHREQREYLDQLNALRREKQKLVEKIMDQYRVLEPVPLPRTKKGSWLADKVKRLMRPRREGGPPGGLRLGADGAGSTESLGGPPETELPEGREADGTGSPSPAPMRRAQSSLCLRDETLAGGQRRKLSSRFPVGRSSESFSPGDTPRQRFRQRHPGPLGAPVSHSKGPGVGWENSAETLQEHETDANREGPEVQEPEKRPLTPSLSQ
UniProt Q99501: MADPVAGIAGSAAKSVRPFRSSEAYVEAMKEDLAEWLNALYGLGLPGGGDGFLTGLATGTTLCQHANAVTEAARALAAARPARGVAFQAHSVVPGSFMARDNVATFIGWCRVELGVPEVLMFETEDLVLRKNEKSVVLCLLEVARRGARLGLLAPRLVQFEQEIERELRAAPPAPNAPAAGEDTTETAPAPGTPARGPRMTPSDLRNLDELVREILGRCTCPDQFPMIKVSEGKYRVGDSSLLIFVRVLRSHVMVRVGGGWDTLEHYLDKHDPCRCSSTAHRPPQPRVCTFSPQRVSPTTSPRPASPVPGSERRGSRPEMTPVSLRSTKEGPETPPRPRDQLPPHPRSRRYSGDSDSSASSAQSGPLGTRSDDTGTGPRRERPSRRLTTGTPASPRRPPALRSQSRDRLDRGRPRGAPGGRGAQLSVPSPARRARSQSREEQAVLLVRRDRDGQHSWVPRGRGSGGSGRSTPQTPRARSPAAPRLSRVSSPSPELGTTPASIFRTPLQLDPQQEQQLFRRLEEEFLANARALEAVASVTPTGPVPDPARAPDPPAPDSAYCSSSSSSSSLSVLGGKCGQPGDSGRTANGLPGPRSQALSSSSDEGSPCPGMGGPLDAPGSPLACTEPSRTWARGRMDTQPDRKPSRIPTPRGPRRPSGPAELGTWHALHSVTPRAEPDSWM
UniProt Q5T8I9: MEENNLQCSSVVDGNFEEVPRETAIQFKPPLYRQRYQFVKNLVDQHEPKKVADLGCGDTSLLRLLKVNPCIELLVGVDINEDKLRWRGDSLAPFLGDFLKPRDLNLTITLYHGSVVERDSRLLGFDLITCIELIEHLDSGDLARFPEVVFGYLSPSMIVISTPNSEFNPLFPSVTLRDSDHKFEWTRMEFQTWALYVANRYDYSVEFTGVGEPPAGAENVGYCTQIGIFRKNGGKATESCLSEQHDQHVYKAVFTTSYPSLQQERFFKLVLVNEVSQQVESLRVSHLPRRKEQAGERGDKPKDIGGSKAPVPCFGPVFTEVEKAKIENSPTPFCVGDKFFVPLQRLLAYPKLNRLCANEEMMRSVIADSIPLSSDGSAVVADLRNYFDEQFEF
UniProt A2RTX5: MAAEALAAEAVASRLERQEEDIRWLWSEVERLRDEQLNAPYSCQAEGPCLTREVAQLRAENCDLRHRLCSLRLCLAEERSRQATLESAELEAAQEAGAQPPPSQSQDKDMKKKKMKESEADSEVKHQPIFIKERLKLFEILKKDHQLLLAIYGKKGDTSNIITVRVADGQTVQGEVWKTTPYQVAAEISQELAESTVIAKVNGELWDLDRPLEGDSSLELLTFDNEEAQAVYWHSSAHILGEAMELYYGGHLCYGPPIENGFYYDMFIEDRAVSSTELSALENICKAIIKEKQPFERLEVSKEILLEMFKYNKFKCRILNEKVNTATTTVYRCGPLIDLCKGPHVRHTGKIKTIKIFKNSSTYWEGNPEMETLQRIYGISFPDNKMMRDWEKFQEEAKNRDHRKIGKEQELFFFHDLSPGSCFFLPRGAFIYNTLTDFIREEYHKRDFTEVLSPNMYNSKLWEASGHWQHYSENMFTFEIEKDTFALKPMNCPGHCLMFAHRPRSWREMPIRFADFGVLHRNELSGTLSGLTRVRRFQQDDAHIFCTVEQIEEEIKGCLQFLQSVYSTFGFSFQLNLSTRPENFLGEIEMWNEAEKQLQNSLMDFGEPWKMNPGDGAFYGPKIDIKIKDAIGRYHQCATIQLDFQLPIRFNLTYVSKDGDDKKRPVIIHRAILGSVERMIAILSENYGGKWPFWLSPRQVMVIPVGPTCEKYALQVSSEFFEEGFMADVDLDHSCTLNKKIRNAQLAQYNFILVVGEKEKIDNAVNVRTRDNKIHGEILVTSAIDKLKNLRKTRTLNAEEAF
UniProt Q9BV38: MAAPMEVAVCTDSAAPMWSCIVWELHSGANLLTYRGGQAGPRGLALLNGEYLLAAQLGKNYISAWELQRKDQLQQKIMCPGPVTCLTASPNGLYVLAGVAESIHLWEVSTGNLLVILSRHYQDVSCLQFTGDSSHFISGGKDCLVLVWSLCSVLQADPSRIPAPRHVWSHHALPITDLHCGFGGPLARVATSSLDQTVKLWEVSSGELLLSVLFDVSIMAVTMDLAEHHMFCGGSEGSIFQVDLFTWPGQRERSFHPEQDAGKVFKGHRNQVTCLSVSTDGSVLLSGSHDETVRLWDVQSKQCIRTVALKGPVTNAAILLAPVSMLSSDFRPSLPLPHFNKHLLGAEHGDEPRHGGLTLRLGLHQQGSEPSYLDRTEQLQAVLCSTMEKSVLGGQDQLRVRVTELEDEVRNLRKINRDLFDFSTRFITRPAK

± gives the standard deviation of the averaged measurements. The list shows a part of the results.

Compound in the test: Nc1nc2c(ncn2[C@@H]2O[C@H](COP(=O)(O)OP(=O)(O)OP(=O)(O)O)[C@@H](O)[C@H]2O)c(=O)[nH]1 [guanosine triphosphate]
As to the kind of experiment: NP40-soluble protein abundance relative to vehicle (solubility fold change) (ratio); higher = more soluble protein in presence of GTP. As to conditions: concentration: 10mM. An outline of the steps: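 Values are fold changes against the detergent-processed vehicle, based on vsn-normalised intensities. Jurkat crude lysate was treated at eight concentrations from 0.1 to 10 mM (10 min at room temperature, then 3 min at 37 °C), solubilised with 0.8% NP40 and benzonase, ultracentrifuged and analysed by TMT-labelled LC-MS/MS over three independent experiments.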
With “A0A096LP75|C4AMC7 and related entries (UniProt Q6VEQ5+C4AMC7)”, the NP40-soluble protein abundance worked out at 1 ± 0.052.
On to A0A140T9R1|O75955 (UniProt O75955), for which the NP40-soluble protein abundance was 1.2 ± 0.26.
On to “A0A0A0MQS0|A8MW92 and related entries (UniProt A8MW92)”, for which the NP40-soluble protein abundance was 1.58 ± 0.13.
For the target A0A0C4DGT4|Q643R3 (UniProt Q643R3), the NP40-soluble protein abundance stood at 0.835 ± 0.094.
Consider A0A0C4DGV9|P49917 (UniProt P49917), for which the NP40-soluble protein abundance is 1.21 ± 0.17.
“A0A087X127|E7EWM3 and related entries (UniProt Q8NF64)”: the NP40-soluble protein abundance was determined as 0.936 ± 0.19.
For CCDC88B (UniProt A6NC98), the NP40-soluble protein abundance was determined as 0.959 ± 0.067.
On to “A0A0A0MRC4|A0A0A0MSK4|Q86YR5 and related entries (UniProt Q86YR5)”, for which the NP40-soluble protein abundance is 0.95 ± 0.074.
For “A0A087WZ62|Q9H6U8 and related entries (UniProt Q9H6U8)”, the NP40-soluble protein abundance amounted to 0.95 ± 0.093.
With “A0A0D9SFR6|Q86XP1 and related entries (UniProt Q86XP1)”, the NP40-soluble protein abundance turned out to be 0.911 ± 0.092.
Consider A0A087WXN9|Q765P7 (UniProt Q765P7), for which the NP40-soluble protein abundance was 1.1 ± 0.036.
On to “A0A5E8 and related entries (UniProt Q99501)”, for which the NP40-soluble protein abundance came out at 1.38 ± 0.078.
For the target “A0A0A6YYC7|Q96JP5 and related entries (UniProt Q96JP5)”, the NP40-soluble protein abundance is 0.965 ± 0.036.
For the target A0A0A0MRN1|Q5T8I9 (UniProt Q5T8I9), the NP40-soluble protein abundance came out at 0.932 ± 0.029.
Turning to UniProt A2RTX5 and related entries, the NP40-soluble protein abundance was determined as 1.24 ± 0.17.
In the case of “A0A0A0MRE5|Q9ULH1 and related entries (UniProt Q9ULH1)”, the NP40-soluble protein abundance is 1 ± 0.023.
In the case of “A0A0A0MQU0|K7EIR0 and related entries (UniProt Q9BV38)”, the NP40-soluble protein abundance worked out at 0.965 ± 0.078.
